Reference: patent US20180235193A1 (MINERVA BIOTECHNOLOGIES, published 2018)
These are yes or no findings as the source states them, for the method shown. In cells and extracts the contact can be indirect. Some entries that bind do so weakly or less than the wild type.

By UniProt entry, the sequences of proteins in these tests, tags left out. Where a name states a change or a piece, a line headed by the entry shows the natural chain unless it says otherwise.
UniProt P15941: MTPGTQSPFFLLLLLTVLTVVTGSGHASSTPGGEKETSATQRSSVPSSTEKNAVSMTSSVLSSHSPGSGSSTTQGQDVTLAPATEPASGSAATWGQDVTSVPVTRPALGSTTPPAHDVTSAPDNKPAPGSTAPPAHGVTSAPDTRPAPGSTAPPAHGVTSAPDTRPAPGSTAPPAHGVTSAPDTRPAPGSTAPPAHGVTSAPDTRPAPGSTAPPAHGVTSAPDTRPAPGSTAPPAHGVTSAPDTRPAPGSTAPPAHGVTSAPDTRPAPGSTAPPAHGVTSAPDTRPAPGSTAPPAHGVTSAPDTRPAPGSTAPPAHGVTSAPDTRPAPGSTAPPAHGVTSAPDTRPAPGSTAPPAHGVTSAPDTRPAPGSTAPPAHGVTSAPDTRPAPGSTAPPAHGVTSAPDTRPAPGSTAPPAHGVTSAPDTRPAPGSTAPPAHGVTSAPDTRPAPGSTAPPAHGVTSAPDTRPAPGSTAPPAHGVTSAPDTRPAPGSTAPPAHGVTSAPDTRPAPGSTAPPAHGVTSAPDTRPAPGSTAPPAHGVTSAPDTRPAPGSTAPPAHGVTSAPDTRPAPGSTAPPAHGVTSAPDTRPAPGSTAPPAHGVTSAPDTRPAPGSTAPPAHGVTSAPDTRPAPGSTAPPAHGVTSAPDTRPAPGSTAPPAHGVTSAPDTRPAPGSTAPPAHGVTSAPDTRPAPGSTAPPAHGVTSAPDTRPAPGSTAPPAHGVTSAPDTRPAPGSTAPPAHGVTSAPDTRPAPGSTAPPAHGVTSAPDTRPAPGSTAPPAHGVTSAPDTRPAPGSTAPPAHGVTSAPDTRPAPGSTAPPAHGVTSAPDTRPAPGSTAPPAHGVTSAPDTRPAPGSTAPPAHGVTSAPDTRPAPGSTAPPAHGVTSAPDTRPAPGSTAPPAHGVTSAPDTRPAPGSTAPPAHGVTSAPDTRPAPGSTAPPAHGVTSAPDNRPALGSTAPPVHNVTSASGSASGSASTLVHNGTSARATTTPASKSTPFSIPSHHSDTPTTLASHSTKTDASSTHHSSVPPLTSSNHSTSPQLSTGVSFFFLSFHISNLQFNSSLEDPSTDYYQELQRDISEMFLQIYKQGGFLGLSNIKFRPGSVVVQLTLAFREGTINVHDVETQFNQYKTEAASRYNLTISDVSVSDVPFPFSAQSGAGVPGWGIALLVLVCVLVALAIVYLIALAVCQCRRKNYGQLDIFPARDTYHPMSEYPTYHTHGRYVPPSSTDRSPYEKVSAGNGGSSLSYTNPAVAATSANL
UniProt Q9Y5B8: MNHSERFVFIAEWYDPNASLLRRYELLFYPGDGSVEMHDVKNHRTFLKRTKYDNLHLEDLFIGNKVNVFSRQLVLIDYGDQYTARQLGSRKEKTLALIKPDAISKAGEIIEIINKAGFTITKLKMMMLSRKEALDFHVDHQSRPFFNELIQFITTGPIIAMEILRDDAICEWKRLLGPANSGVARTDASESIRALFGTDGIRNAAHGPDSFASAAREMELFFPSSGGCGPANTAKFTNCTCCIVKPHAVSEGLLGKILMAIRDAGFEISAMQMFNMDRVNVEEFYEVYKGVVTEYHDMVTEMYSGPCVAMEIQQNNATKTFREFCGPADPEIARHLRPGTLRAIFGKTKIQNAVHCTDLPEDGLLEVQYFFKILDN

Target: MUC1* growth factor receptor (cleaved form of human MUC1) (human) (UniProt P15941)
Assay: co-immunoprecipitation from human iPS and ES cell lysates with Ab5, Western blot

binding: binds
Substance: Human NME7-X1 (from UniProt Q9Y5B8 125-376) (ligand)
